PubChem BioAssay AID1259424, University of Nebraska Medical Center, 2018
Here is an unselected part of about 14,000 deposited reagents. 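Higher correlation or smaller distance means closer resemblance to KSR1 loss; control wells, including KSR1 knockdowns, recur on many plates.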 Not given: the time to read-out.

- Screen: 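Seek colon cancer survival genes behaving like KSR1, using a six-gene signature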 (primary screen)
- Cells: human HCT116 colon cancer cells
- Knock-down reagent: siRNA pool against human genes, 50 nM
- Measurement: 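Six signature mRNAs by branched-DNA multiplex assay, scaled to two housekeeping genes and non-targeting median, log2; matched to mean KSR1 knockdown profile by Pearson correlation and euclidean distance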
- Reading the numbers: mean correlation with KSR1 profile and KSR1 correlation: higher = expression change more like KSR1 knockdown; mean distance from KSR1 profile: higher = expression change less like KSR1 knockdown

mean correlation with KSR1 profile	mean distance from KSR1 profile	KSR1 correlation, replicate 1	KSR1 correlation, replicate 2	KSR1 correlation, replicate 3	target gene
0.422	2.15	0.371	0.724	0.491	POU1F1 (GeneID 5449)
0.168	2.07	-0.0418	0.208	0.21	RNF220 (GeneID 55182)
-0.398	2.05	-0.283	-0.282	-0.641	RXRG (GeneID 6258)
-0.402	1.16	-0.204	-0.187	-0.552	DLL4 (GeneID 54567)
0.0854	0.991	-0.858	-0.318	0.17	CENPBD2P (GeneID 65996)
0.0125	1.64	-0.0527	0.0843	-0.136	PRDX5 (GeneID 25824)
-0.384	1.57	-0.506	-0.266	-0.132	TIMMDC1 (GeneID 51300)
-0.317	2.24	-0.322	-0.129	-0.366	PLA2G6 (GeneID 8398)
0.762	0.765	0.71	0.505	0.683	IRF6 (GeneID 3664)
-0.498	2.3	-0.426	-0.718	-0.392	ANAPC5 (GeneID 51433)
0.0592	2.67	-0.0925	-0.09	0.132	TMEM214 (GeneID 54867)
-0.114	3.25	-0.0598	-0.464	-0.0654	STYXL1 (GeneID 51657)
0.0552	1.39	-0.0794	-0.0724	-0.0826	SLC6A15 (GeneID 55117)
-0.116	2.53	-0.211	-0.324	0.254	ZFP37 (GeneID 7539)
-0.146	3.39	-0.239	-0.135	-0.251	ZBTB33 (GeneID 10009)
0.0799	2.12	0.114	0.0761	0.0678	LEP (GeneID 3952)
0.471	1.21	0.374	0.534	0.326	COX17 (GeneID 10063)
-0.133	1.83	0.531	-0.176	-0.747	JAK2 (GeneID 3717)
-0.132	1.94	-0.399	-0.174	0.553	ELMO1 (GeneID 9844)
0.259	2.75	0.23	0.23	0.224	ZC3H10 (GeneID 84872)
0.882	0.998	0.857	0.839	0.795	APOC1 (GeneID 341)
0.215	1.83	0.223	0.0176	0.0937	CAVIN3 (GeneID 112464)
-0.322	2.53	-0.341	-0.214	-0.499	CD79A (GeneID 973)
-0.622	3.22	-0.6	-0.491	-0.753	FAM50B (GeneID 26240)
-0.107	1.81	-0.197	-0.163	-0.0642	SYNRG (GeneID 11276)
-0.417	2.76	-0.787	-0.706	-0.194	NAGA (GeneID 4668)
-0.869	2.16	-0.647	-0.977	-0.895	NPAP1 (GeneID 23742)
0.919	1.79	0.896	0.881	0.862	PINK1 (GeneID 65018)
-0.671	6.86	-0.55	-0.435	-0.505	ZNF529 (GeneID 57711)
-0.663	2.61	-0.619	-0.712	-0.633	PFDN2 (GeneID 5202)
-0.877	3.16	-0.773	-0.801	-0.731	HEATR1 (GeneID 55127)
-0.408	1.8	-0.431	-0.426	-0.492	TTC31 (GeneID 64427)
-0.708	2.4	-0.729	-0.537	-0.658	PELO (GeneID 53918)
0.858	1.07	0.766	0.832	0.753	SEPTIN3 (GeneID 55964)
-0.468	5.4	-0.428	-0.0621	-0.774	SOX10 (GeneID 6663)
-0.281	2.23	-0.0872	-0.0467	-0.482	ZNF701 (GeneID 55762)
-0.405	2.2	-0.105	-0.551	-0.408	EDC4 (GeneID 23644)
-0.574	1.66	-0.525	-0.478	-0.267	SLC25A1 (GeneID 6576)
-0.892	1.85	-0.934	-0.694	-0.515	ADPRM (GeneID 56985)
-0.424	2.49	-0.507	-0.416	-0.307	ZNF667 (GeneID 63934)
0.681	3.1	0.742	0.629	0.668	HAND1 (GeneID 9421)
-0.0166	2.31	0.04	-0.00283	0.0412	NEFH (GeneID 4744)
0.424	1.44	0.326	0.214	0.569	PLSCR3 (GeneID 57048)
-0.0966	4.14	0.00933	-0.0398	0.0272	CYBA (GeneID 1535)
0.255	4.28	0.387	0.435	-0.0055	PRKCZ (GeneID 5590)
-0.128	1.88	0.178	-0.0391	-0.562	YARS1 (GeneID 8565)
0.123	1.71	-0.224	0.358	-0.216	OR8G1 (GeneID 26494)
-0.184	1.64	-0.235	-0.394	-0.0589	FUT5 (GeneID 2527)
0.762	1.65	0.702	0.738	0.78	GLP2R (GeneID 9340)
0.259	1.63	0.295	0.146	0.307	CYP2F1 (GeneID 1572)

Ordered by “KSR1 correlation, replicate 2” (descending): some entries from above
mean correlation with KSR1 profile	mean distance from KSR1 profile	KSR1 correlation, replicate 1	KSR1 correlation, replicate 2	KSR1 correlation, replicate 3	target gene
0.681	3.1	0.742	0.629	0.668	HAND1 (GeneID 9421)
0.424	1.44	0.326	0.214	0.569	PLSCR3 (GeneID 57048)
-0.0166	2.31	0.04	-0.00283	0.0412	NEFH (GeneID 4744)
-0.281	2.23	-0.0872	-0.0467	-0.482	ZNF701 (GeneID 55762)
-0.424	2.49	-0.507	-0.416	-0.307	ZNF667 (GeneID 63934)
-0.574	1.66	-0.525	-0.478	-0.267	SLC25A1 (GeneID 6576)
-0.405	2.2	-0.105	-0.551	-0.408	EDC4 (GeneID 23644)
-0.892	1.85	-0.934	-0.694	-0.515	ADPRM (GeneID 56985)
